Binding data for one molecule are collected here from patent US6365161.

Protein sequences, listed by entry. Tags and fused reporters are not part of them. Lines headed by an entry give the natural chain unless they say otherwise; changes in a name come on top. Residues count along the entry.
UniProt P06731, residues 35-685: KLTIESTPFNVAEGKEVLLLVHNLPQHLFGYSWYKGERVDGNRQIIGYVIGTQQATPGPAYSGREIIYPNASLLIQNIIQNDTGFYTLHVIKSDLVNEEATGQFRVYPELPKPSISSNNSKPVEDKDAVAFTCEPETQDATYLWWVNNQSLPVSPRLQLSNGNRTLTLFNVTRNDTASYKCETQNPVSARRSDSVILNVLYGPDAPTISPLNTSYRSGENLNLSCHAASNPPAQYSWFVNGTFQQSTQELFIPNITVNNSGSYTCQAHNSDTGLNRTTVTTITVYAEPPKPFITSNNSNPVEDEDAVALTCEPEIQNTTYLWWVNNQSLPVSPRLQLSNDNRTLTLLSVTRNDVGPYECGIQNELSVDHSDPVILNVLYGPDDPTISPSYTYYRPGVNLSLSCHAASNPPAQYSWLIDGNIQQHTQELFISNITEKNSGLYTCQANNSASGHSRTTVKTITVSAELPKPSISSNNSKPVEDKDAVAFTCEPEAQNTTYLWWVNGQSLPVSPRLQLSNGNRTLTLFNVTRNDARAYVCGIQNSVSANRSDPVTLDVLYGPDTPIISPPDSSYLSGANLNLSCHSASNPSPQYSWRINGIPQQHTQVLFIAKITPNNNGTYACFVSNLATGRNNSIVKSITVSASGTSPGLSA
UniProt P12314: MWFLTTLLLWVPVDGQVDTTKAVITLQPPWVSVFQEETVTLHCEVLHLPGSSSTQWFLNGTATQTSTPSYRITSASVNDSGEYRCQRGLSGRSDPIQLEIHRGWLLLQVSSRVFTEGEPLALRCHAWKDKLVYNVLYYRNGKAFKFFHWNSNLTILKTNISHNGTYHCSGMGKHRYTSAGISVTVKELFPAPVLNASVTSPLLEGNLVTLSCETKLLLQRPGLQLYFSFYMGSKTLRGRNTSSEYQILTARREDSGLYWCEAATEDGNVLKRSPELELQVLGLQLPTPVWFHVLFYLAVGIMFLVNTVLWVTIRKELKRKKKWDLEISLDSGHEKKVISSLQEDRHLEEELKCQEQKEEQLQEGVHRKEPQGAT
UniProt P01871: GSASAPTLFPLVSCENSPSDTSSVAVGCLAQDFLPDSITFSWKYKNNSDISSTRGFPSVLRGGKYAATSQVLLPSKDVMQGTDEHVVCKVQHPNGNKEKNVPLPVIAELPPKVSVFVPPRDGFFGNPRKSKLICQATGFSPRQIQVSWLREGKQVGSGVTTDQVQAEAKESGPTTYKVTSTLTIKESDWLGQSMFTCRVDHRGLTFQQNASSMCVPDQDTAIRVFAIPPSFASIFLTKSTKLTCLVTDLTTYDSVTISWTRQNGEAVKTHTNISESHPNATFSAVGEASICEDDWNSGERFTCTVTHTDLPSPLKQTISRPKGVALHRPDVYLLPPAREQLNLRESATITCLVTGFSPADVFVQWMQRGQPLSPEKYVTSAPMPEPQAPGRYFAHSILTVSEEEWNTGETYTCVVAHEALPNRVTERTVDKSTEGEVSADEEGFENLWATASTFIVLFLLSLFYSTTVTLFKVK

The target of assay [1] is carcinoembryonic antigen (CEA) (UniProt P06731). Nature of the assay: bispecific ELISA, CEA-coated plates, soluble FcγRI/IgM-µ, AP anti-human IgM. In general terms: ELISA stands for enzyme-linked immunosorbent assay.
In assay [2] the target is soluble fusion protein consisting of the extracellular domain of human FcγRI and human IgM heavy chain (sFcγRI-µ) (human) (UniProt P12314+P01871). The assay is described as above.

Results are given in words; binding and its absence hold for the method and conditions named. Some entries that bind do so weakly or less than the wild type.

B1: bispecific single chain molecule H22-anti-CEA encoded by construct 321 (bispecific antibody)
chain: DIQLVESGGGVVQPGRSLRLSCSSSGFIFSDNYMYWVRQAPGKGLEWVATISDGGSYTYYPDSVKGRFTISRDNSKNTLFLQMDSLRPEDTGVYFCARGYYRYEGAMDYWGQGTPVTVSSGGGGSGGGGSGGGGSDIQLTQSPSSLSASVGDRVTITCKSSQSVLYSSNQKNYLAWYQQKPGKAPKLLIYWASTRESGVPSRFSGSGSGTDFTFTISSLQPEDIATYYCHQYLSSWTFGQGTKVEIKSSCSSGGGGSDIKLQQSGAELVRSGTSVKLSCTASGFNIKDSYMHWLRQGPEQGLEWIGWIDPENGDTEYAPKFQGKATFTTDTSSNTAYLQLSSLTSEDTAVYYCNEGTPTGPYYFDYWGQGTTVTVSSGGGGSGGGGSGGGGSENVLTQSPAIMSASPGEKVTITCSASSSVSYMHWFQQKPGTSPKLWIYSTSNLASGVPARFSGSGSGTSYSLTISRMEAEDAATYYCQQRSSYPLTFGAGTKLELKRAAGSSGGGGSDIAAAEQKLISEEDLNGAAHHHHHH
B1: the binding entry in assay [1] and in assay [2] was “binds” each time.
